Among the data in publication doi:10.1101/2022.07.12.499798 are binding values, retold here.

By UniProt entry, the sequences of proteins in these tests, tags left out.
UniProt P29618: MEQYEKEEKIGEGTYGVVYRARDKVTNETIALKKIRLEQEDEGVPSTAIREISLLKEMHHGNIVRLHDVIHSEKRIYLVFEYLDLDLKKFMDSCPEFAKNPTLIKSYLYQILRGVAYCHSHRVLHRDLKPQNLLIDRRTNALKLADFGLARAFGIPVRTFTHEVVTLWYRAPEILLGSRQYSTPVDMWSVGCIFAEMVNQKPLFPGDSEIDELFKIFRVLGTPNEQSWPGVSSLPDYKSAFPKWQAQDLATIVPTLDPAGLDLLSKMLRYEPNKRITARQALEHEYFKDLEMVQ
UniProt Q336M2: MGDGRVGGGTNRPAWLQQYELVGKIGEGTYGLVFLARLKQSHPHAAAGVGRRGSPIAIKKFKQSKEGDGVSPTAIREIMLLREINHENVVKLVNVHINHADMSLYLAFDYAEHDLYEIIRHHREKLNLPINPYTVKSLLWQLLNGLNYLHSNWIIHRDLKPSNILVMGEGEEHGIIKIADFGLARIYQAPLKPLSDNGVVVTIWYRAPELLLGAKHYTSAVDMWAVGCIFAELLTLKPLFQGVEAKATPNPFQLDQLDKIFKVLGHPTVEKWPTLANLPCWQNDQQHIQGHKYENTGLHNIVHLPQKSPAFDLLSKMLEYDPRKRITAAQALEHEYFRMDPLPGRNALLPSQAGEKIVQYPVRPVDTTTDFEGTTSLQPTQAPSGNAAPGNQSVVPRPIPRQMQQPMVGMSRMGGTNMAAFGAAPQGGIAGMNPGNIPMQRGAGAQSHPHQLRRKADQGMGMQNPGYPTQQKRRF
UniProt Q8L4P8: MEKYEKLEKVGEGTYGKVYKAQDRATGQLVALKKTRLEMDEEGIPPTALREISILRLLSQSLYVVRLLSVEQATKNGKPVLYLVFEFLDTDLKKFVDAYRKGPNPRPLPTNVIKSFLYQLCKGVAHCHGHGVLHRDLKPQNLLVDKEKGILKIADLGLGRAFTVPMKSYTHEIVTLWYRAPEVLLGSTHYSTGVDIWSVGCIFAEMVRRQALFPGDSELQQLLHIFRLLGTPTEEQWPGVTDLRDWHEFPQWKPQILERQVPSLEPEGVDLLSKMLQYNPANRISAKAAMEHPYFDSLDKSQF
UniProt P29619: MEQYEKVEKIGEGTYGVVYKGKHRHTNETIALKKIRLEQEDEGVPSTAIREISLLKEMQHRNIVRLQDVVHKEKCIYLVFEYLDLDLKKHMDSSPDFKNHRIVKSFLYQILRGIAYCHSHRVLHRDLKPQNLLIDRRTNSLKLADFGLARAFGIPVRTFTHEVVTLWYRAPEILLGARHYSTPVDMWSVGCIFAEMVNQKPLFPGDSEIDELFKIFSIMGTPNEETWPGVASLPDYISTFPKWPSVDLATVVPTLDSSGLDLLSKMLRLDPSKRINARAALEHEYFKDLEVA
UniProt Q6Z6G5: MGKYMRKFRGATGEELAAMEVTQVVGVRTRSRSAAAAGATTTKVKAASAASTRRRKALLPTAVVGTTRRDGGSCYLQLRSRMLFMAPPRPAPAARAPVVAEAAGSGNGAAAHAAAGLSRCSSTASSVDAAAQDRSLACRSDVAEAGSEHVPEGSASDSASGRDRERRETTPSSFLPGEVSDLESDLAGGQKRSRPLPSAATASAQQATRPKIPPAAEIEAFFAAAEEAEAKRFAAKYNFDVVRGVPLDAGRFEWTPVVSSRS

No constants are given. Whether binding was seen depends on the method and setting. For part of these data: In cells and extracts the contact can be indirect. Some entries that bind do so weakly or less than the wild type.

The target of assay [1] is CDKA1;1, yeast two-hybrid construct (rice (Oryza sativa)) (UniProt P29618). Briefly: two-hybrid.
The target of assay [2] is T1, CDKB2;1, yeast construct (rice (Oryza sativa)) (UniProt Q0J4I1).
T1 sequence: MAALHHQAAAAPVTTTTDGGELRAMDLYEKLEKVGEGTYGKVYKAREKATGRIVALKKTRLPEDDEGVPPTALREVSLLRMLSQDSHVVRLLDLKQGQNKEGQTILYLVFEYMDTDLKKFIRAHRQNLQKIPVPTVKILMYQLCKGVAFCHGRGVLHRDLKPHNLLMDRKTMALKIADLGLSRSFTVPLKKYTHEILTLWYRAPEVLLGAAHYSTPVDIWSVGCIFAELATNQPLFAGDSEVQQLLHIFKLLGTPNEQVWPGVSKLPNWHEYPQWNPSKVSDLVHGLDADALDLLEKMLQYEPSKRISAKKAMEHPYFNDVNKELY
The assay is described as follows: two-hybrid.

For assay [3], the target named is CDKE1, yeast two-hybrid construct (rice (Oryza sativa)) (UniProt Q336M2). Briefly: two-hybrid.
Assay [4] concerns the target CDKB1;1, yeast construct (rice (Oryza sativa)), Q8L4P8. The assay is described as follows: two-hybrid. Particulars: remark: other sources report otherwise.
Assay [5] has as its target CDKA2;1, yeast two-hybrid construct (rice (Oryza sativa)) (UniProt P29619). Briefly: two-hybrid.
For assay [6], the target named is CDKB1;1, yeast construct (rice (Oryza sativa)) (UniProt Q8L4P8). Briefly: two-hybrid.
The target of assay [7] is KRP1, yeast two-hybrid bait (rice (Oryza sativa)) (UniProt Q6Z6G5). Briefly: two-hybrid.
In assay [8] the target is T2, KRP4 (Kip-Related Protein 4), yeast construct (rice (Oryza sativa)) (UniProt Q7XDH8).
T2 sequence: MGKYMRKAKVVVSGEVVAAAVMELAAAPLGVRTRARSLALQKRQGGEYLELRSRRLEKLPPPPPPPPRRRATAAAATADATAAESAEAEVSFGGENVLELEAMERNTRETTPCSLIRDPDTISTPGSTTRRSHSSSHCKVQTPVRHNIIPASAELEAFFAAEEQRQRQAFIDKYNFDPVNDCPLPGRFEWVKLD
Briefly: two-hybrid.

Assay [9] has as its target T3, KRP5 (Kip-Related Protein 5), yeast construct (rice (Oryza sativa)) (UniProt Q283L0).
T3 sequence: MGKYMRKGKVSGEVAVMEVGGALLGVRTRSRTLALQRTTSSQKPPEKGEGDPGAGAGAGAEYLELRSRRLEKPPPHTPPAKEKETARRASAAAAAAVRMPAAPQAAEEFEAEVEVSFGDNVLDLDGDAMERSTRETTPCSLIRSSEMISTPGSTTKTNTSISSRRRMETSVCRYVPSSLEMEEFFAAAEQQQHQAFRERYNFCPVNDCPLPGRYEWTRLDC
The assay is described as follows: two-hybrid.

Assay [10] addresses T3, KRP5 (Kip-Related Protein 5), yeast construct (rice (Oryza sativa)). Briefly: co-IP.
Assay [11] addresses T4, KRP5-nEYFP (rice (Oryza sativa)) (UniProt Q283L0).
T4 sequence: T3 sequence
Briefly: split reporter.

B1: CYCA2;1, yeast two-hybrid prey (protein, UniProt Q2QQ96 1-490)
chain: MAGRKENPVLTACQAPSGRITRAQAAANRGRFGFAPSVSLPARTERKQTAKGKTKRGALDEITSASTATSAPQPKRRTVLKDVTNIGCANSSKNCTTTSKLQQKSKPTQRVKQIPSKKQCAKKVPKLPPPAVAGTSFVIDSKSSEETQKVELLAKAEEPTNLFENEGLLSLQNIERNRDSNCHEAFFEARNAMDKHELADSKPGDSSGLGFIDIDNDNGNPQMCASYASEIYTNLMASELIRRPRSNYMEALQRDITKGMRGILIDWLVEVSEEYKLVPDTLYLTINLIDRFLSQHYIERQKLQLLGITSMLIASKYEEICAPRVEEFCFITDNTYTKAEVLKMEGLVLNDMGFHLSVPTTKTFLRRFLRAAQASRNVPSITLGYLANYLAELTLIDYSFLKFLPSVVAASAVFLARWTLDQSDIPWNHTLEHYTSYKSSDIQICVCALRELQHNTSNCPLNAIREKYRQQKFECVANLTSPELGQSLFS
Consider B1, for which the results for the binding result in [1], in assay [2] and in assay [3] were “no binding”, “binds” and “no binding”, respectively.

B2: CYCA2;1, yeast two-hybrid prey, Q2QQ96 1-490 (protein)
chain: B1 chain
With B2, the binding entry in assay [4] is “no binding”.

B3: KRP5 (Kip-Related Protein 5), yeast construct (protein, UniProt Q283L0 1-221)
chain: T3 sequence
Turning to B3, the binding entry in assay [1], in assay [5], in [6], in assay [2] and in assay [3] was “binds” throughout.

B4: CYCD5;1 (rice Cyclin D5;1), yeast two-hybrid prey (protein, UniProt Q0DQA9 1-367)
chain: MEAEDEYSAGCSFSLMCQEDSTDLDDDGGGGGCFAGDGRADLLLVYNAAAAADDEDEEEVEEYMDHLVSKESSFCSSSSSTSSSSCCFSDAGGESAAAAAPMDWFALARRATVKWILETRGCFGFCHRTAYLAIAYFDRFCLRRCIDRSVMPWAARLLAVACVSLAAKMEEYRAPALSEFRAGVGDDGYEFSCVCIRRMELLVLSTLDWRMAAVTPFDYLPCLSSRLRRHVGGGGGAGASAALIFSAAEAASVLDHRPSTVAAAAVLAATHGALTREALESKMSGLSPSFLLDKEDVFACYSAMLSQPTSPASKSTTTTTGKRSSSSSCSESTDAASSYDATAASFPAAASCGSKRMRLELPGGILR
For the molecule B4, the binding result is on record as “no binding” in [1]; “binds” in [5]; “binds” in assay [6]; “binds” in [2]; “no binding” in assay [3]; “no binding” in assay [7]. The binding entry in assay [8] is recorded as “no binding”; in assay [9] it was “binds”.

B5: CYCD6;1, yeast two-hybrid prey (protein, UniProt Q69S43 1-320)
chain: MDMATGAKEVVVVEAYEYEFDLENPFTSPADEPIASLLDAEGHHSPSVSAAASAARREAAGFISKVRYDGELDVHPRVAYLALNYVDRYLSKRQLACERNPWAPRLLAISCLTLAAKMQRAAAISAADIQRGEEFMFDEAKIQRMEQMVLNALEWRTRSVTPLAFLGFFLSACFPQPRHPALLDAIKARAVDLLLRVQPEVKMAEFSPSVAAAAALLAAAGEVAGAHLLGFEAGVAACPFVNSEKLRECGEVMAAACGVGPSWAAAATSAETPVTVLGHHRSASSESERTTTVGSAANSADAKRRCMGPPRQWGVGGPDE
As to B5, the binding result in assay [1] is “no binding”; in assay [5] it was “binds”; in assay [6], “no binding”; in assay [2], “binds”; in assay [3], “no binding”.

B6: KRP4 (Kip-Related Protein 4), yeast construct (protein, UniProt Q7XDH8 1-194)
chain: T2 sequence
In the case of B6, the binding result in assay [10] is reported as “binds”; in [1] it was “binds”; in assay [5], “binds”; in [6], “binds”; in [2] it was “binds”; in assay [3] it was “no binding”. Besides, the binding result in assay [9] is listed as “binds”.

B7: KRP4-cEYFP (protein, UniProt Q7XDH8 1-194)
chain: T2 sequence
On to B7, for which the binding result in [11] is listed as “binds”.
